Data reported in PMC7460587.
No constants are given. Whether binding was seen depends on the method and setting. Binding seen in cells or lysates may run through a third protein. Some binding calls cover weakened binding; strength is not graded here.

Protein sequences, listed by entry. Tags and fused reporters are not part of them.
UniProt P04605: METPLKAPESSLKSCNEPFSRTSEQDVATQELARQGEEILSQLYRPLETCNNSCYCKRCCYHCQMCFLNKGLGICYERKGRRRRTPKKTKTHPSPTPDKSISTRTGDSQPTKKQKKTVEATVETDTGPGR

Target: T1, HIV-2 Viral protein X (Vpx) (HIV-2 (ROD strain-based vector)) (UniProt P06939)
T1 sequence: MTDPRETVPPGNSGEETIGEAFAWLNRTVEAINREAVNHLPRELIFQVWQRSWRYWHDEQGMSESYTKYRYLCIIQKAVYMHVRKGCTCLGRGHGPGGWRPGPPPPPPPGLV
Test: proximity ligation; HEK293T cells infected with wild-type or Y44A Tat mutant HIV-2 pseudovirions for 1 h at 37 °C, fixed with formaldehyde, permeabilized with 0.5% Triton-X 100; Duolink PLA Kit with anti-Vpx and anti-Tat antibodies at 1:100; fluorescence microscopy

HIV-2 transactivator protein (Tat), wild-type (from UniProt P04605 1-130)
binding: binds
